Primary screen of a compound library

By UniProt entry, the sequences of proteins in these tests, tags left out. Residues count along the entry.
UniProt I6X8D2, whole entry: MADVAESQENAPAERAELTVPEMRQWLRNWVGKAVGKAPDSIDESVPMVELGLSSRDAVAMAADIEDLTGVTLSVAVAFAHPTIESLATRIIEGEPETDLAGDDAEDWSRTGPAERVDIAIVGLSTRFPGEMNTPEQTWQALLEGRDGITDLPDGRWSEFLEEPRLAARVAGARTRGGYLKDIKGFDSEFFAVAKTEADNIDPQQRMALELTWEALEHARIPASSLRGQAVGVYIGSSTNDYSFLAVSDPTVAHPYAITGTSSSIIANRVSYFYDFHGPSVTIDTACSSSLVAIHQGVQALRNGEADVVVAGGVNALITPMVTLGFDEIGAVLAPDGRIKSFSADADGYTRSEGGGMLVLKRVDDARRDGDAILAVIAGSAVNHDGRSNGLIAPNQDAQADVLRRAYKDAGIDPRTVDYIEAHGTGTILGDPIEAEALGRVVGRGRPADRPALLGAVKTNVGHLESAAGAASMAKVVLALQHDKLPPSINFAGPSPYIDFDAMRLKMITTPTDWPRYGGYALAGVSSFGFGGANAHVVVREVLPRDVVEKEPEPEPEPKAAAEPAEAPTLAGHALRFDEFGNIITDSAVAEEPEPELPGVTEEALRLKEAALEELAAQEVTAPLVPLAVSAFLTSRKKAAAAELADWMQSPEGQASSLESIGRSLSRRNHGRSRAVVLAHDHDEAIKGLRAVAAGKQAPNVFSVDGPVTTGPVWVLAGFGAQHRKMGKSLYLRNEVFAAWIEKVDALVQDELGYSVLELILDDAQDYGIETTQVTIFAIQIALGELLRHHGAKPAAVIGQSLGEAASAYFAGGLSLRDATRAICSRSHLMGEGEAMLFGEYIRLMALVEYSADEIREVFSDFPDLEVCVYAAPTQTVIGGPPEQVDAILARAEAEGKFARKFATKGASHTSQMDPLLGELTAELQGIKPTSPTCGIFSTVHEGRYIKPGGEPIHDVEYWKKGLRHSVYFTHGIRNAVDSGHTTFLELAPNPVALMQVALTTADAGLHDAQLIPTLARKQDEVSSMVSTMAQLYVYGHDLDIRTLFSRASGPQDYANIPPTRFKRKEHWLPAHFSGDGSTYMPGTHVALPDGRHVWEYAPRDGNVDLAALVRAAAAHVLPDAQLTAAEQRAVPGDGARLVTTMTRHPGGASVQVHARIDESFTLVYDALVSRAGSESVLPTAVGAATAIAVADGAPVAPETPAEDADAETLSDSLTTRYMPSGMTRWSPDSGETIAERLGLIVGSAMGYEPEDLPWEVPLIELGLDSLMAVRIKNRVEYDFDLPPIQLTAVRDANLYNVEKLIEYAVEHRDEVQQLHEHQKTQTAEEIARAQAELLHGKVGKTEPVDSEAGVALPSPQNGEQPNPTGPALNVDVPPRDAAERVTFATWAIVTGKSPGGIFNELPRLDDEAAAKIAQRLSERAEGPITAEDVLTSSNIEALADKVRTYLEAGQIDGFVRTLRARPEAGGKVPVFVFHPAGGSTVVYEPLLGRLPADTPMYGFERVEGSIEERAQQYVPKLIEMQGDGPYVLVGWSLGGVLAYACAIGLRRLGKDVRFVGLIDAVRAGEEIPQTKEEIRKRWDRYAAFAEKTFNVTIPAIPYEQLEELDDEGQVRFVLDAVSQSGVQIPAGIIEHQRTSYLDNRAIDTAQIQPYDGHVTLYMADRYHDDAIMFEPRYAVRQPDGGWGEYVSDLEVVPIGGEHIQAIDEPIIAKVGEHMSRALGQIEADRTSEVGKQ
UniProt A4I591, 1-473: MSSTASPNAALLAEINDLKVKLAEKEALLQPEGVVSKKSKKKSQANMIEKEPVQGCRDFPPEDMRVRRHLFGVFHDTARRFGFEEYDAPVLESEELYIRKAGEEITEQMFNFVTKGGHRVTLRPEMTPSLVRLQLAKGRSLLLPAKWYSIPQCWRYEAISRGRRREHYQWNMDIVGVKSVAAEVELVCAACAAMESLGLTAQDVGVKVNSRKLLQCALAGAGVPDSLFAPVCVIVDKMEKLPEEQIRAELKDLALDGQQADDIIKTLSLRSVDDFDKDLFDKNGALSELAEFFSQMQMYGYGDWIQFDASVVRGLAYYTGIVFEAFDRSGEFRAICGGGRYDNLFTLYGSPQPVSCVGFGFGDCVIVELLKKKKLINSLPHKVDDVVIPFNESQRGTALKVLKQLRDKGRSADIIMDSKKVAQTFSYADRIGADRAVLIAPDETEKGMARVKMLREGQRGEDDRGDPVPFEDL

The filed quantity is “Percent Effect” (%). The controls that fix the scale are not given in the record; negative values are as filed. This is an unselected part of the compounds tested. Two or more numbers in one place are separate tests of the same structure; such repeats can differ widely. A dash means the value is not listed here; it may have been measured.

Leishmania in macrophages: 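Cell assay of Leishmania donovani living inside macrophages; the read-out is not stated. Compounds at 30 µM. The record gives no direction; compounds that gave an IC50 in retests scored well above the rest, so higher reads as stronger inhibition. About 69,000 compounds were tested under these conditions; 1.5% (about 1,000) showed 50% or more at least once.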
Pks13 thioesterase: 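Polyketide synthase Pks13, Mycobacterium tuberculosis (UniProt I6X8D2). Enzyme assay of the thioesterase domain of polyketide synthase 13; the read-out is not stated. Tested at 30 µM. Higher reads as stronger inhibition (inferred from which compounds were picked for retests). Of about 67,000 compounds tested this way, about 300 (0.46%) reached 50% or more in at least one test.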
LiHisRS: 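Histidine-tRNA ligase, Leishmania infantum (UniProt A4I591). Enzyme assay of histidyl-tRNA synthetase; the read-out is not stated. Compounds at 30 µM. Direction is inferred from retests: higher values go with stronger inhibition. The assay is labelled LdHisRS but filed under L. infantum. Of about 69,000 compounds tested this way, about 410 (0.6%) reached 50% or more in at least one test.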

structure	Leishmania in macrophages	Pks13 thioesterase	LiHisRS
COc1ccc(CN2Cc3nnn(C)c3C(COCCN(C)C)C2)cc1 (configuration not stated)	-	-12.77%	9.722%
Cc1ccc(C(=O)N2CCC3(CCN3Cc3ccc(F)cc3)C2)cn1 (configuration not stated)	-	-21.63%	23.76%
O=C(c1ccnnc1)N1CC[C@]2(C[C@H](Oc3ncccc3F)CO2)C1	-	-39.77%	16.13%
COc1ccc(-c2cnc(CN3CCCC3Cn3cncn3)o2)cc1 (configuration not stated)	4.577%	-26.2%	19.05%
COCCN(Cc1ccoc1)S(=O)(=O)c1ccc(F)c(C)c1	9.693%	5.035%	17.07%
CCC(NCc1cccc(Cl)c1)c1ccccc1OCC(=O)NC (configuration not stated)	-11.76%	-2.903%	13.7%
O=C(CCc1ccccc1)N1CCCCC1C1OCCO1 (configuration not stated)	19.1%	-37.3%	2.564%
CNC(=O)NC(=O)C(C)N1CCN(c2ccc(C#N)cc2F)CC1 (configuration not stated)	41.73%	6.103%	21.95%
O=C(NCc1ccc(CN2CCCC2)cc1)NC1(CO)CCCC1	-17.6%	1.223%	25.64%
O=C(c1ccccc1F)N1CC(c2nc(C3CC3)no2)C1	7.856% and 17.95%	-37.97%	10.43%
COc1ccc(C(=O)N(Cc2cnn(C)c2)C(C)C)cc1Br	3.717%	-30.58%	7.576%
[H][C@]12CC[C@]([H])(CN(Cc3ccccn3)C1)N(C(=O)c1cc(C)nc(C)n1)C2	16.91%	-	-
CCCc1nnc(SCC(=O)Nc2cc(C(C)(C)C)nn2C)[nH]1	24.65%	-21.02%	28.77%
CCn1nc(C)c2nc(C(C)C)nc(N3CCOCC3)c21	-68.93%	-33.95%	-23.01%
Cn1cc(-c2ncc3c(c2C(=O)O)CCN(Cc2ccccn2)C3)cn1.O=C(O)C(F)(F)F.O=C(O)C(F)(F)F	-27.06%	-	-
Cc1cccnc1CN(C)C(C(=O)O)c1ccc(C(C)(C)C#N)cc1 (configuration not stated)	33.4%	0.6397%	9.524%
Cc1cc(S(=O)(=O)N(CC(N)=O)CC(C)C)ccc1Br	-11.1%	-7.434%	-2.703%
COc1ccc(Oc2ncccc2NC(=O)N2CC[C@H](O)C2)cc1	2.336%	-38.24%	10.67%
Cc1noc(C2CCN(C(=O)c3c(C)noc3C)CC2)n1	29.56%	-11.36%	18.87%
COCc1noc(-c2ccc(N3CCCCC3CO)nc2)n1 (configuration not stated)	-2.375%	22.1%	1.905%
Cc1ccnc(NCc2cn3nc(C)sc3n2)n1	3.473%	-7.172%	-4.819%
CN(CCO)CC1COCCN1C(=O)C1CCCCC1.O=CO (configuration not stated)	2.009%	-	-
CC(C)(C)c1csc(CCNC(=O)C(c2ccccc2)n2cnnn2)n1 (configuration not stated)	-7.152%	7.728%	-5.495%
Cc1ccc(C(=O)NCc2cccnc2-n2cncn2)cc1S(C)(=O)=O	4.227% and -1.17%	-0.4247%	-5.128%
CN(Cc1nccn1C)S(=O)(=O)Cc1cccc(C#N)c1	3.121%	-34.72%	5.714%
CCN(Cc1nc2c(cnn2C)c(=O)[nH]1)c1ccccc1C	2.23%	-28.81%	11.11%
Cc1nc(CCNC(=O)NCC(c2ccco2)N(C)C)cs1 (configuration not stated)	8.086% and 3.854%	-16.18%	15.38%
c1cnnc(N2CCCC(NCc3cccc4c3OCCCO4)C2)c1 (configuration not stated)	-16.14%	-13.13%	6.14%
Cc1cccc2c1ccn2CC(=O)NC[C@@H]1CCCN2CCCC[C@H]12	-	-10.11%	18.48%
CN1CCN(CCCN(C)S(=O)(=O)CC2CCCCC2)CC1	15.57%	-42.86%	15.38%
COCc1nc(CNC2CCCc3c2cnn3C(C)(C)C)cs1 (configuration not stated)	12.72%	-43.9%	19.17%
Cn1cnnc1S(=O)(=O)Cc1cc(Cl)c2c(c1)OCO2	4.176%	13.36%	2.632%
CC1=N[C@@]2(CC[C@@H]3CN(Cc4ccc(C)cc4)C[C@@H]32)C(=O)N1CC1CC1	-	-28.2%	19.27%
Cc1nc(N2CCN(C(=O)c3ccsc3)CC2)c2cnn(C)c2n1	14.73%	-1.449%	14.29%
c1ccc(CN2CCCC[C@H]3CN(c4ncccn4)C[C@H]32)cc1	-	3.109%	18.44%
Cc1cc(C)cc(NCCC(=O)NC2CCCCC2)c1	0.8808%	-8.265%	10.11%
CCN1CCOC(CNCc2ccccc2OCc2ccncc2)C1 (configuration not stated)	15.96%	-37.06%	0%
CCc1ccc(C2c3nc[nH]c3CCN2Cc2nccn2CC)nc1 (configuration not stated)	34.49%	-	-13.04%
O=C(c1ccnnc1)N1CCO[C@H]2[C@H](Oc3cccnc3)CC[C@@H]21	-	-13.89%	2.752%
CC(C)CNC(=O)CNc1c(NCc2ccncc2)c(=O)c1=O	-6.31%	1.798%	10%
O=C(C1CC(=O)N(C2CC2)C1)N1CCC(Oc2ccccc2Cl)CC1 (configuration not stated)	-11.8%	-6.034%	19.35%
CCCc1nc(N2CCN(Cc3ccccn3)CC2)c2cnn(C)c2n1	23.32%	-11.48%	18.03%
O=C(O)C(F)(F)F.[H][C@@]12CN(C3CCOCC3)C[C@@]1([H])N(Cc1cccc(C)c1)C(=O)CO2	25.92%	-	-
[H][C@@]12C[C@H](C(=O)NCC3CC3)CN(Cc3ccoc3)[C@]1([H])CCO2	-11.75%	-	-
CC(C)(C)c1nc(CN2CCCC2c2nnc3ccccn23)no1 (configuration not stated)	-39.07%	-15.02%	15.66%
COCC1CN(c2ccc(Cl)cc2C#N)CCO1 (configuration not stated)	22.43%	-32.34%	26.03%
O=C(c1ccc(O)cn1)N1CCOC(Cc2cccc(C(F)(F)F)c2)C1 (configuration not stated)	23.53%	12.6%	12.28%
Cc1noc(CN2CCN(CC(C)O)CC2)n1 (configuration not stated)	14.08%	-33.25%	-55.77%
CCC(=O)N1CCC2(CC1)CC(NC(=O)N(C)C)c1cc(C)ccc12 (configuration not stated)	-4.653%	-19.76%	5.556%
O=C(O)C(F)(F)F.[H][C@@]12CCN(c3ncc(F)cn3)[C@]1([H])CC[C@H](C(=O)NCc1ccco1)O2	20.21%	-	-
CCc1ccc2c(C3CN(C(C)=O)C3)ncn2c1	19.07%	-18.91%	17.65%
Cc1cc(OCC(=O)N2CCCC2c2noc(C)n2)no1 (configuration not stated)	20.49%	-5.603%	13.79%
COc1ccc(C(=O)N2C[C@@H](C(=O)O)[C@H](c3ccccc3C)C2)c(O)c1	22.03%	-13.36%	22.64%
Cc1ccc(O)c(CN(CCCn2ccnc2)Cc2ccc(C)s2)c1.O=C(O)CC(O)(CC(=O)O)C(=O)O	17.37% and 18.8%	-	-
CCn1nnc2c1C(COC)CN(C(=O)Cc1ccccn1)C2 (configuration not stated)	15.45%	18.33%	20.51%
Cc1oc(C)c(C(=O)N2CCN(Cc3cscn3)CC2)c1C	-2.603%	-14.6%	13.27%
CCC(CC)CS(=O)(=O)NC(=O)C1CCCC1	-14.48%	24.36%	-7.042%
O=C(NCc1ccncc1)Nc1cc(C(F)(F)F)c[nH]c1=O	-4.09%	-19.23%	9.174%
[H][C@@]12CS(=O)(=O)C[C@]1([H])N(S(=O)(=O)c1cn(C)cn1)CCN2CC(C)C	21.82%	-	-
CCc1nccn1CCC(=O)N1CCOC(c2ccc(F)cc2)C1 (configuration not stated)	-7.381%	2.284%	8.333%
CCCn1ccnc1-c1nccn1CCn1cnnc1	18.96%	-4.922%	20.41%
COc1cc(C(=O)Nc2nc(C)no2)ccc1C	9.313%	-17.61%	19.1%
Cc1nc2cc(=O)[nH]n2c(C)c1CNC(=O)C(C)Cc1ccccc1 (configuration not stated)	24.5%	-30%	35.21%
O=c1ccc2c([nH]1)CCN(S(=O)(=O)c1ccc3c(c1)OCCO3)C2	4.168% and 3.113%	-24.15%	8.696%
CCN1CCOC(CNCc2ccccc2OCc2ccccn2)C1 (configuration not stated)	25.08%	-10.51%	13.64%
CCCNc1ccc(C(=O)NCCc2cccc(OC)c2)cn1	14.31%	-16.95%	19.8%
CN1CCCc2sc(C(=O)NCc3cccnc3)nc21	3.938%	10.22%	27.03%
O=C(O)C(F)(F)F.O=S(=O)(C1CC1)N1CCC2(CC1)CC(Oc1cccnc1)CO2 (configuration not stated)	-9.795%	-	-
CNc1nc2c(s1)C(c1ccc(Cl)cc1Cl)CC(=O)N2 (configuration not stated)	8.939%	24.49%	62.5%
CN(CC(=O)Nc1cc(C(F)(F)F)c[nH]c1=O)Cc1ccccc1	-9.37%	-2.136%	19.18%
Cc1ccc(CC(=O)N(C)CC2(O)CCN(c3ccccn3)C2)s1 (configuration not stated)	24.75%	-34.8%	16.67%
CNC(=O)c1cc2c(nc1NCC1CC1)CCNCC2	-29.9%	81.66%	-6.849%

Source: ChEMBL document CHEMBL3988442, “University of Dundee, Small-Polar-MMV Screening Library” (2021).